Assay results taken from PMC6251626.
These are yes or no findings as the source states them, for the method shown.

Biological target: wt-Alp14-monomer (S. pombe Alp14 residues 1-510) (S. pombe) (UniProt O94534)
Assay: SEC-MALS; isolated proteins alone, 200 mM KCl; both purified

binding: no binding
B1: wt-Alp14-monomer (S. pombe Alp14 residues 1-510) (domain or fragment, UniProt O94534 1-510)
chain: MSQDQEEDYSKLPLESRIVHKVWKVRLSAYEECSKSFSLSADGSDNCFELWNNQSELWKSVLTDSNVAAQEAGTAAFVAYCRFSDPSHLLKAREISVLSISEKCLTSPRAGTRENALEALMLLVEADSAAPVIESIIPSLSARSPKVIASNVAAIASLVEQFGAKVIPSKMIIPHISNLFGHADKNVRKEASRLTVNIYRWTGDPLKDLLFKDLRPVQTKELESLFAELPTEPPKQTRFLKSQQPTSEPNVETQVEEQPALENEESEPEPSDDQFDLVEEVDVLPNVDPNLETLMASSKWKDRKEALDKLLPVLSQPKIKDNDFFNLVAILTKSVSKDANIMVVINAAHCIQAMAKGLRSNFSKYASTSINALLERSKEKKANVIESLSSAMDAVLATSSLDDLAELIASFAGNKNPQIKSSCFSLFSRSFSNMTSLPSKFTVDTCAKACVPGVSDTFEPVRSAAAEALGVLMKLVGERAINQYLSPLDDIRKSKIRSFYETATVKAKAP
